The values that follow come from patent publication US10759762B2, “Fluorescent synthetic retinoids” (High Force Research Limited, priority 2014, dated 2020).

The subject of this series is TERA-2 cells. As to the kind of experiment: Confocal fluorescence microscopy of treated TERA-2 cells. Format: cell-based. Conditions: 7 days. The protocol: Even at the lowest treatment concentration, the fluorescence of compound 9 is visible, with 0.1-10 μM treatments easily imaged.
FIGS. 21, 22 and 23 respectively show SHSY5Y cells (neuroblastoma) and fibroblast cells and TERA-2 cells treated with 10 μM compound 9, and imaged using a confocal fluorescence microscope after 8 hours (SHSY5Y) and 24 hours (fibroblasts) and 7 days (TERA-2).

On to `CC(C)N1CCC(C)(C)c2cc(C#Cc3ccc(C(=O)O)cc3)ccc21` [compound 9, 4-2-[4,4-Dimethyl-1-(propan-2-yl)-1,2,3,4-tetrahydroquinolin-6-yl]ethynylbenzoic acid], for which, for the setting “TERA-2 cells, 10 μM”, the “fluorescence visibility and localisation” value is “clearly visible with obvious localisation around the nuclear envelope”. Further, the “fluorescence of compound in cells” value reads like this: (TERA-2 cells, 0.1-10 μM treatments) “easily imaged”; (TERA-2 cells, lowest treatment concentration (0.01 μM)) “visible”. Also, the cellular localisation result (TERA-2 cells, 10, 1, 0.1, 0.01 μM) is given as “mainly localised around the nuclear envelope”.
